Assay results: PMC10193238
These are yes or no findings as the source states them, for the method shown. Binding seen in cells or lysates may run through a third protein. Some binding calls cover weakened binding; strength is not graded here. Where a sequence is shown, tags or fusion partners need not be part of it.

Protein sequences, listed by entry. Tags and fused reporters are not part of them. Lines headed by an entry give the natural chain unless they say otherwise; changes in a name come on top.
UniProt Q15208: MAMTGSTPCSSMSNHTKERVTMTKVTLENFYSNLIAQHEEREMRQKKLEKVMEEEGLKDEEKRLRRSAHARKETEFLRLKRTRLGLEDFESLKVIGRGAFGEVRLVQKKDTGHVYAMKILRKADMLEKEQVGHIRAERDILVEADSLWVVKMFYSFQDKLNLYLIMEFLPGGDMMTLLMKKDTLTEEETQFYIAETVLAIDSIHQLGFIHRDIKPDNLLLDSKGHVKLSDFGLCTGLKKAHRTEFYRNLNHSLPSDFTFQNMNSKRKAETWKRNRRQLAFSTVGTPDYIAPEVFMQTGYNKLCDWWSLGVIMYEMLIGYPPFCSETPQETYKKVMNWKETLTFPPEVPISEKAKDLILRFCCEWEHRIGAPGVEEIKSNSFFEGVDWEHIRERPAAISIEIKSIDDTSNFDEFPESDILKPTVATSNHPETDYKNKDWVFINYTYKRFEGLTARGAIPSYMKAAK

Target: T1, His-TBK1 (Tank-Binding protein Kinase 1) (UniProt Q9UHD2)
T1 sequence: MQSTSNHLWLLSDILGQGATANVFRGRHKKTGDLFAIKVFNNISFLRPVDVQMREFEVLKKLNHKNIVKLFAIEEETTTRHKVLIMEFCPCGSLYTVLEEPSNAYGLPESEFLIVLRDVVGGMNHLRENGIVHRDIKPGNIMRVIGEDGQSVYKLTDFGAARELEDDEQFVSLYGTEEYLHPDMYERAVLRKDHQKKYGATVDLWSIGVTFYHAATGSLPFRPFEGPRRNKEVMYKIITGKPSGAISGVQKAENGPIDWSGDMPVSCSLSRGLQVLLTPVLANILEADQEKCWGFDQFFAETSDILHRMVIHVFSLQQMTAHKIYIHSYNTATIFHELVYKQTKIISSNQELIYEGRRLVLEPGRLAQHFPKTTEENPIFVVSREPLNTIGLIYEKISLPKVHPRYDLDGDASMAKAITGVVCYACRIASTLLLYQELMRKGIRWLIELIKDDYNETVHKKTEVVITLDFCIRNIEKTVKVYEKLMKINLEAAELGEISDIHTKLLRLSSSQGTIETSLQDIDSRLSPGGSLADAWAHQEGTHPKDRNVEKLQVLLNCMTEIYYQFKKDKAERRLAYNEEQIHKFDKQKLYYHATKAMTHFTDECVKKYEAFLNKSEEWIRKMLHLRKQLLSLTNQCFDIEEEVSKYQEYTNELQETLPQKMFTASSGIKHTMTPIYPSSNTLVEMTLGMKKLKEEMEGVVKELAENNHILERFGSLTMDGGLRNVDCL
Experiment: co-IP; STK38 and His-TBK1 cotransfected in HepG2 cells for 48 h; NP-40 lysis buffer (Hepes 30 mM, NaCl 100 mM, NP-40 0.5%, pH 7.4); 1 mg protein with anti-His antibody on Dynabeads overnight at 4 degrees; Western blot

Row | Substance | binding
1 | Myc-STK38 (serine/threonine kinase 38) (from UniProt Q15208 1-465) (enzyme) | binds
2 | STK38 T444A mutant (from UniProt Q15208 1-465) (enzyme) | no binding
